# The list shows a part of the results.
# Protein sequences, listed by entry. Tags and fused reporters are not part of them. Lines headed by an entry give the natural chain unless they say otherwise; changes in a name come on top.
# UniProt Q9NVH6: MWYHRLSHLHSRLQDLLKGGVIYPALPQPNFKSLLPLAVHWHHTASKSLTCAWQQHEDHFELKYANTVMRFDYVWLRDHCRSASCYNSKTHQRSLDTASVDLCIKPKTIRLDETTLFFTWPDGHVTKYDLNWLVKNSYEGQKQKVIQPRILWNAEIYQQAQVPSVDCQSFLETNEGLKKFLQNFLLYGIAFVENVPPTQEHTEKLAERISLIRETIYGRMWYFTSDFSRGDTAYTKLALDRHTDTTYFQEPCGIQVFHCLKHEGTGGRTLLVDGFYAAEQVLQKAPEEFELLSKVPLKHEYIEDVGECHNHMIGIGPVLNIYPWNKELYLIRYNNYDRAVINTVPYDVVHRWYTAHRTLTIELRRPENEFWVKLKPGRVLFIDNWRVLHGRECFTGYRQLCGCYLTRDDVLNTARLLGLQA
# UniProt Q92547, whole entry, looked up: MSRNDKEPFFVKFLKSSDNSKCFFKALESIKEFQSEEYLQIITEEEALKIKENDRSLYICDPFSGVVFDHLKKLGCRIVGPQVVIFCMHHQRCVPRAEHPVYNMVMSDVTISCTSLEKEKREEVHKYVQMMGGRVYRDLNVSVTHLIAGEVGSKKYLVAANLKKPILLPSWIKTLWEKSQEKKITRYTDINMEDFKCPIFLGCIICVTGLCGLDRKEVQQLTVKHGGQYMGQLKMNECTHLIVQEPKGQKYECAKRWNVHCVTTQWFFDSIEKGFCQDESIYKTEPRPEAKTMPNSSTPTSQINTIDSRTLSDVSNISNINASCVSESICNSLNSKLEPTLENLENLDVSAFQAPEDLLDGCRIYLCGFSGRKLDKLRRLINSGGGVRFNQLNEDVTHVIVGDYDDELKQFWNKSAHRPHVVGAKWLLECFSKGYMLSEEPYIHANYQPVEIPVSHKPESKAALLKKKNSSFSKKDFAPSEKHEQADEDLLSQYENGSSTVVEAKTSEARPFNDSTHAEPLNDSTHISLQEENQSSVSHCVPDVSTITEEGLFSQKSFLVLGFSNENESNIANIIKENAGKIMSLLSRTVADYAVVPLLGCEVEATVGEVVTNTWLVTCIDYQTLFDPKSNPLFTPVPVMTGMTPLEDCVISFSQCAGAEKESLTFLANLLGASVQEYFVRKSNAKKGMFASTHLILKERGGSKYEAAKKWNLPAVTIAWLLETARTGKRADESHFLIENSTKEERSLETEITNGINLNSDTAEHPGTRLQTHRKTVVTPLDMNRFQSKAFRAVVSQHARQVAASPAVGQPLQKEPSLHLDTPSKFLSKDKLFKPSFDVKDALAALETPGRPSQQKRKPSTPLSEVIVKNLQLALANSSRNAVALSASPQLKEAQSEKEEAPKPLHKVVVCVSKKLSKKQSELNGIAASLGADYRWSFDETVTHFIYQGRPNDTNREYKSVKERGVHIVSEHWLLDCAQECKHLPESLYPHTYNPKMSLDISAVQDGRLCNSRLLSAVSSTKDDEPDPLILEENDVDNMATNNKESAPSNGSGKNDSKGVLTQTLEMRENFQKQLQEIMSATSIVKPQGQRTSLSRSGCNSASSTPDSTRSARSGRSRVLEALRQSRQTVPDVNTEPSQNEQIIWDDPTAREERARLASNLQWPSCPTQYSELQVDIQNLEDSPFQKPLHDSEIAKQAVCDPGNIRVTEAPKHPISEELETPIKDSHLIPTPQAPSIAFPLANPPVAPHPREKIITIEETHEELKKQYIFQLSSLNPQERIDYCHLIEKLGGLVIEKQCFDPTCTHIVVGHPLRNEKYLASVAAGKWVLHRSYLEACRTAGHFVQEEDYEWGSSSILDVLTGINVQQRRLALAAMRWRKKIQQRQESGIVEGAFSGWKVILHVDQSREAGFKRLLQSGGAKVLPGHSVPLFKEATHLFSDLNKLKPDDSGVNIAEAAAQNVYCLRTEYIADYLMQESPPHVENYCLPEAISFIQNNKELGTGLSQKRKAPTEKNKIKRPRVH
# Legend:
# [1] = biological target: TMLHE_Q9NVH6_51_SLTCAWQQHEDHFELK (UniProt Q9NVH6); test: probe-labelled cysteine peptide fold change vs DMSO (competition) (log2 fold change); higher = less target engagement (more negative = stronger competition); conditions: THP-1, incubation time: 4 h
# [2] = biological target: TOPBP1_Q92547_977_GVHIVSEHWLLDCAQECK (UniProt Q92547); test: as above; conditions: THP-1, incubation time: 4 h
# 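Note: competitive profiling in live THP-1 cells: cysteine peptides tagged with an iodoacetamide desthiobiotin (IA-DTB) probe, intensity after compound treatment relative to DMSO-treated cells.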
structure (smiles),measurement,setting,value
Cc1cc(C(=O)N2CCCN(C(=O)CCl)CC2)ccc1-c1ccccc1 [compound 10],probe-labelled cysteine peptide fold change,[1]; 10 µM,-0.0542
same,probe-labelled cysteine peptide fold change,[1]; 50 µM,-0.13
same,probe-labelled cysteine peptide fold change,[2]; 10 µM,0.052
same,probe-labelled cysteine peptide fold change,[2]; 50 µM,0.11

# Source: the supplement of paper PMC12067093, “Discovery and optimisation of a covalent ligand for TRIM25 and its application to targeted protein ubiquitination” (Chemical Science, 2025)
